Patent US20230227580A1, “ANTI-VWF ANTIBODIES AND USES THEREOF” (MONASH UNIVERSITY, priority 2020, published 2023)

Tested on: platelet aggregation / thrombus formation
Test: Progressive shear gradient flow model: whole blood over collagen type I patches in straight channels
Type: cell-based, human
Source text: Fluid dynamics were simulated with a COMSOL Multiphysics 4.2 laminar flow module applied to three-dimensional meshes. For all simulations, no-slip boundary conditions and Newtonian fluids were assumed. To obtain meshes from the plain channel geometries, channel dimensions were taken from the original computer-aided design (CAD) files and reconstructed in COMSOL. To obtain meshes from platelet aggregate geometries, confocal fluorescence microscopy image z-stacks of labeled platelets were processed in ImageJ. Each image in a z-stack was converted into a binary image by thresholding, and an x-y heightmap was constructed by summing all binary data in a z-stack followed by multiplying the result with the height of the original z-stack as documented by the confocal microscope. […] Input flow parameters were set based on pump settings as used in the experiments, and were adjusted to account for the reduced width of the fluorescence aggregate meshes compared to the full channel geometries. […]
Citrated whole blood was incubated with DiOC6 (0.5 µg ml^-1) (Sigma-Aldrich Co, St. Louis, MO, USA) and drawn through microfluidic channels by a programmable syringe pump (Legato 130, KD Scientific, USA). […] Platelet deposition was recorded over time (2 frames per minute) for up to 20 minutes and quantified in ImageJ using a Z-projection of the acquired signal.

B1: scFv A1: single chain antibody combining variable heavy chain of mAb CR1 with variable light chain of mAb CR2; VH SEQ ID NO: 11, VL SEQ ID NO: 10 (antibody, V domains shown)
VH: QVQLQQPGAELVRPGASVKLSCKASGYSFTNYWMSWVKQRPGQGLEWIGMIHPSDSDTRLNQKFKDKATLTVDKSSSTAYMQLSSPTSEDSAGLLLCKKFEGWLPVLLGPRHHSHSLLS
VL: DIELTQSPASLAVSLGQSYRASCKSVSTSGYSYMHWNQQKPGQPPRLLIYLVSNLESGVPARFSGSGSGTDFTLNIHPVEEEDAATYYCQHIRELTRSEGDQAEINR
modifications: scFv linker; Mouse
Calculated maximum shear rate gradient (CFD on platelet aggregates, control 4.9): 3.1 s^-1/µm
Aggregate surface shear rates at the front area (CFD analysis) (scFv A1 5 µg ml^-1, 1,000 s^-1): reduced aggregate surface shear rates
